Publication PMC3984170
Results are given in words; binding and its absence hold for the method and conditions named. Binding seen in cells or lysates may run through a third protein. Some results given as binding are weak or reduced against the parent protein; the word gives no strength.

The chains behind the UniProt entries cited, without tags or fusion partners. Where a name states a change or a piece, a line headed by the entry shows the natural chain unless it says otherwise. A line that says so, or that is headed by a name, gives the form on record, which may keep a tag or linker.
UniProt P29590: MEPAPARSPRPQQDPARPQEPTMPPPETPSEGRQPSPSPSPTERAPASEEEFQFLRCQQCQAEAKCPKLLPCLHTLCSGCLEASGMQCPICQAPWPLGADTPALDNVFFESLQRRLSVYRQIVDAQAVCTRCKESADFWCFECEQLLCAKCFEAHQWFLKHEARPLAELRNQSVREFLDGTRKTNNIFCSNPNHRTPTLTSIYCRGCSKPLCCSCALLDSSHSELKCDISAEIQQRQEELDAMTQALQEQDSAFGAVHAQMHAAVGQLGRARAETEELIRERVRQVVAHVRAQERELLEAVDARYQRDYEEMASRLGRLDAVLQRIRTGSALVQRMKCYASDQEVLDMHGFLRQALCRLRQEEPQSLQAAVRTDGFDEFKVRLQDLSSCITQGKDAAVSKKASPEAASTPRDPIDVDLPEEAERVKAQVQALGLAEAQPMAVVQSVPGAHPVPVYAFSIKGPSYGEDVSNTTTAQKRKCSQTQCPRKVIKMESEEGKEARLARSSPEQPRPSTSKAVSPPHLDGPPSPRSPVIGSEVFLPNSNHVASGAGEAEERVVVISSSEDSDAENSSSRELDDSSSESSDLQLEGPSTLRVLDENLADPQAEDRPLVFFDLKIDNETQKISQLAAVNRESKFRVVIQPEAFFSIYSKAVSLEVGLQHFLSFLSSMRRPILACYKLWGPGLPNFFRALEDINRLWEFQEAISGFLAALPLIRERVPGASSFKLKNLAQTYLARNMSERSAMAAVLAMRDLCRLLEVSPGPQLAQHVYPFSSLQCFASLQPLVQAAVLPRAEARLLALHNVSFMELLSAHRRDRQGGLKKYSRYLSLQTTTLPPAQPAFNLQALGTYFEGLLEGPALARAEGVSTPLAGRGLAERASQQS
PML4 (induced in the stable cell line U2OS/PML4) (P29590-5, form named): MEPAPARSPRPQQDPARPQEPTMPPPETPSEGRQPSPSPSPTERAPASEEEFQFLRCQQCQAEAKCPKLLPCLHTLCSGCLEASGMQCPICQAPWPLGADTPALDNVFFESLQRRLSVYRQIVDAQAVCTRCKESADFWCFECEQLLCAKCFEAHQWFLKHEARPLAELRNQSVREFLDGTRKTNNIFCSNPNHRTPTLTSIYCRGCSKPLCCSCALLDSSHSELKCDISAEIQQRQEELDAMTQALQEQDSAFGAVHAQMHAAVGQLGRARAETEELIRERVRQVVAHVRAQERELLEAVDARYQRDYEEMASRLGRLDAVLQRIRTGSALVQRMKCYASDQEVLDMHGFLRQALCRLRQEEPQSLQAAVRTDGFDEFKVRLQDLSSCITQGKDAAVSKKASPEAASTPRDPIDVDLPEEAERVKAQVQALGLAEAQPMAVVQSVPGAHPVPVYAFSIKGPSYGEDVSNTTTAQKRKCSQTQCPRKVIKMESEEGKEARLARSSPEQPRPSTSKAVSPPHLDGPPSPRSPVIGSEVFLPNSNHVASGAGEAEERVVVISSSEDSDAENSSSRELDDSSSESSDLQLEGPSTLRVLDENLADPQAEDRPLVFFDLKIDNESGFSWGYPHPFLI
UniProt P08047: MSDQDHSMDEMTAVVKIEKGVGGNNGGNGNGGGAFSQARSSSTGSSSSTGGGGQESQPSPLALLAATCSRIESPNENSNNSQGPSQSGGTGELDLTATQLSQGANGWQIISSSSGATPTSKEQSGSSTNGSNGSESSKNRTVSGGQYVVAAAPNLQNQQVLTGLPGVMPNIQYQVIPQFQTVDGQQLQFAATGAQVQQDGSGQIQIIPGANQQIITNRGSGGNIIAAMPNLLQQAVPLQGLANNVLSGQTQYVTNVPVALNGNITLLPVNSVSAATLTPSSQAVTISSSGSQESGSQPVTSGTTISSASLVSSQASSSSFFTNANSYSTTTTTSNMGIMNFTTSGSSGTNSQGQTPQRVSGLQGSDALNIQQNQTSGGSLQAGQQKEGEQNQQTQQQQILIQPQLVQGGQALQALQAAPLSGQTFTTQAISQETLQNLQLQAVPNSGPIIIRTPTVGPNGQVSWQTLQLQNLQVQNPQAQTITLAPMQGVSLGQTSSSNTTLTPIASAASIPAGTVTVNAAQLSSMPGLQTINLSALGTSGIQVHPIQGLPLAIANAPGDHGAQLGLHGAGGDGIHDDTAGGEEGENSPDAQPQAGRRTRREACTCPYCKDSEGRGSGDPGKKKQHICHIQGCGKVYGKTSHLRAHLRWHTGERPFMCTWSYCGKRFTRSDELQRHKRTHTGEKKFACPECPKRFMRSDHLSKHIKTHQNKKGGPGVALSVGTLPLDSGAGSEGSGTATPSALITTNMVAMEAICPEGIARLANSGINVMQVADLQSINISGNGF

Key:
[1] = target: PML4 (transfected into PML-/- MEFs) (UniProt P29590); assay: co-IP; PML-/- MEFs co-transfected with PMLIV and FLAG-Sp1-HA or FLAG-Sp1K16R-HA, lysed after 24 h; immunoprecipitation with anti-PML polyclonal antibody, IgG control; Western blot with anti-HA monoclonal antibody
[2] = target: Sp1 (endogenous, human cells) (human (endogenous in U2OS and SiHa)) (UniProt P08047); assay: co-IP; data not shown; SiHa cells with or without IFN-α treatment, similar co-immunoprecipitation assay
[3] = target: Sp1 (endogenous, human cells) (human (endogenous in U2OS and SiHa)) (UniProt P08047); assay: co-IP; U2OS/PML4 cells after induction of PML4 with ZnSO4; lysis and washes in RIPA buffer; immunoprecipitation with anti-Sp1 antibody (normal rabbit IgG as negative control), Western blot with PML4-specific antibody

FLAG-Sp1-HA (from UniProt P08047 1-785)
binding [1]: binds

PML (endogenous, SiHa cells) (from UniProt P29590 1-882)
binding [2]: binds

PML4 (induced in the stable cell line U2OS/PML4) (from UniProt P29590-5 1-633)
binding [3]: binds
